# Data reported in the supplement of paper PMC11348887.
# Where a name gives a salt, the structure may show the parent alone. Some of the results follow. Most values lie at the level of the controls, where differences are scatter.
# Columns and labels:
# Details in all cases: 5 µM; treatment: days 7-14 after plating, readout day 21
# [1] = system: hPSC-derived cortical neurons (WA09); test: nucleus area z-score vs screen plate; higher = larger nuclei (more mature)
# [2] = system: hPSC-derived cortical neurons (WA09); test: total neurite length per nucleus (MAP2) z-score; higher = more neurite growth
# [3] = system: hPSC-derived cortical neurons (WA09); test: nucleus roundness z-score vs screen plate; higher = rounder nuclei (more mature)
# [4] = system: hPSC-derived cortical neurons (WA09); test: KCl-induced FOS+/EGR-1+ double-positive nuclei fraction z-score (KCl minus unstimulated); higher = stronger activity-induced IEG response
SMILES,nucleus area z-score [1],total neurite length per nucleus (z-score) [2],nucleus roundness z-score [3],KCl-induced FOS+/EGR-1+ double-positive nuclei fraction z-score [4]
COC(=O)[C@@H]1CC2=CC(=O)CC[C@]2(C)[C@@]23O[C@@H]2C[C@@]2(C)[C@@H](CC[C@@]24CCC(=O)O4)[C@H]13 [Eplerenone],-0.213,0.407,-0.0966,-0.475
COc1ccc(S(=O)(=O)Nc2nc(-c3cccc([N+](=O)[O-])c3)cs2)cc1OC,0.712,1.89,1.19,1.4
Cc1ccccc1-n1c(Cn2nc(-c3cccc(O)c3)c3c(N)ncnc32)nc2cccc(C)c2c1=O,-0.801,0.438,0.159,0.34
CS(=O)(=O)N1CCN(Cc2cc3nc(-c4cccc5[nH]ncc45)nc(N4CCOCC4)c3s2)CC1,-0.826,0.105,0.661,0.323
O=C(Nc1ccccc1)Nc1ccc(-c2ccc(C(=O)[C@@H]3CCC[C@H]3C(=O)O)cc2)cc1,0.657,-0.324,-0.189,0.499
O=c1cc(N2CCOCC2)oc2c(-c3ccccc3)cccc12,0.13,0.153,1.32,-0.0806
CCn1cc(C(=O)O)c(=O)c2cnc(N3CCCC3)nc21 [Piromidic Acid],1.42,-0.297,-1.37,-0.525
CC[C@H]1OC(=O)[C@H](C)[C@@H](O[C@H]2C[C@@](C)(OC)[C@@H](O)[C@H](C)O2)[C@H](C)[C@@H](O[C@@H]2O[C@H](C)C[C@H](N(C)C)[C@H]2O)[C@](C)(O)C[C@@H](C)C(=O)[C@H](C)[C@H]2OC(=O)O[C@@]21C [Erythromycin Cyclocarbonate],0.964,0.625,0.369,1.78
Fc1ccc(C(c2ccc(F)cc2)N2CCN(C/C=C/c3ccccc3)CC2)cc1 [Flunarizine 2HCl],-2.03,-1.89,-3.97,-0.139
CCCc1nn(C)c2c(=O)[nH]c(-c3cc(S(=O)(=O)N4CCN(C)CC4)ccc3OCC)nc12 [Sildenafil Citrate],0.767,-0.301,-0.409,0.695
C[C@H]1COC2(CCN(c3nc(=O)c4cc(C(F)(F)F)cc([N+](=O)[O-])c4s3)CC2)O1 (racemic) [BTZ043 Racemate],0.722,0.23,-0.0412,0.185
c1nc2c(NC3CCCCC3)nc(Nc3ccc(N4CCOCC4)cc3)nc2[nH]1 [Reversine],0.516,0.401,-1.58,-0.685
CC(=O)OCC(COC(C)=O)OC(C)=O [Triacetin],0.696,1.11,1.18,0.73
O=C(Nc1c[nH]nc1-c1nc2ccc(CN3CCOCC3)cc2[nH]1)NC1CC1,4.44,-0.455,-0.206,-1.81
CN1CCN(Cc2ccc(NC(=O)Nc3ccc(Oc4ccnc(N)n4)cc3)cc2C(F)(F)F)CC1,-16.5,-6.68,-13.9,1.1
CS(=O)(=O)c1ccc(-c2nnc(/C=C/c3nnc(-c4ccc(C#N)cc4)o3)n2-c2ccccc2Cl)nc1,0.867,-0.622,0.492,-0.199
CC(C)(CO)c1cc2cc(NC(=O)C3(c4ccc5c(c4)OC(F)(F)O5)CC3)c(F)cc2n1C[C@@H](O)CO,2.08,-0.176,0.0219,2.31
CCC[C@H](Nc1nc(-c2ccc(NC(=O)NCC)c(OC)c2)ncc1C)c1cccnc1 [CYT997 (Lexibulin)],-11,-6,-0.308,-0.931
CNC(=O)c1cc(Oc2ccc(NC(=O)Nc3ccc(Cl)c(C(F)(F)F)c3)cc2)ccn1 [Sorafenib Tosylate],1.33,-0.478,-0.886,0.716
CC[C@H]1[C@@H](O)[C@@H]2[C@H](CC[C@]3(C)[C@@H]([C@H](C)CCC(=O)O)CC[C@@H]23)[C@@]2(C)CC[C@@H](O)C[C@@H]12 [Obeticholic Acid],0.206,-0.483,0.0334,0.0484
Cc1cc(OCCCS(C)(=O)=O)cc(C)c1-c1cccc(COc2ccc3c(c2)OC[C@H]3CC(=O)O)c1,1.49,-0.163,-0.715,1.1
COc1ccc(CNc2nc(N3CCC[C@H]3CO)ncc2C(=O)NCc2ncccn2)cc1Cl [Avanafil],-0.441,0.645,0.216,0.226
CN(C)C(=O)C(CCN1CCC(O)(c2ccc(Cl)cc2)CC1)(c1ccccc1)c1ccccc1 [Loperamide HCl],-1.46,-1.41,-0.705,0.0568
C=C1CC[C@H](O)C/C1=C/C=C1\CCC[C@]2(C)[C@@H]([C@H](C)/C=C/[C@H](C)C(C)C)CC[C@@H]12 [Vitamin D2],0.89,0.0584,-0.0765,-0.413
OC[C@H]1O[C@@H](Oc2cc(O)cc(/C=C/c3ccc(O)cc3)c2)[C@H](O)[C@@H](O)[C@@H]1O [Polydatin],-0.292,0.301,-0.181,0.0571

SMILES,nucleus area z-score [1],total neurite length per nucleus (z-score) [2],nucleus roundness z-score [3],KCl-induced FOS+/EGR-1+ double-positive nuclei fraction z-score [4]
CC1(C)CCC[C@]2(C)[C@H]3CC(=O)O[C@]3(C)CC[C@@H]12 [Sclareolide],0.89,-0.821,-1.43,0.564
O=c1c2ccccc2nc2n1CCc1c-2[nH]c2ccccc12 [Rutaecarpine],0.182,0.417,0.0195,0.551
C[C@]12C=CC(=O)C=C1CC[C@@H]1[C@@H]2[C@@H](O)C[C@@]2(C)[C@H]1CC[C@]2(O)C(=O)CO [Prednisolone],0.211,0.00676,0.115,1.22
CO[C@H]1C[C@@H]2CC[C@@H](C)[C@@](O)(O2)C(=O)C(=O)N2CCCC[C@H]2C(=O)O[C@H]([C@H](C)C[C@@H]2CC[C@@H](OC(=O)C(C)(CO)CO)[C@H](OC)C2)CC(=O)[C@H](C)/C=C(\C)[C@@H](O)[C@@H](OC)C(=O)[C@H](C)C[C@H](C)/C=C/C=C/C=C/1C,-0.347,1.04,0.801,0.819
O=C1c2c(O)cc(O)cc2OC(c2ccc(O)c(O)c2)C1O (stereo unspecified) [Taxifolin (Dihydroquercetin)],0.343,0.56,-0.164,0.2
Clc1ccc2c(c1)C(N1CCNCC1)=Nc1ccccc1O2 [Amoxapine],2.24,0.124,-0.994,0.353
COc1ccnc(C[S+]([O-])c2nc3cc(OC(F)F)ccc3[nH]2)c1OC (stereo unspecified) [Pantoprazole sodium],-0.0546,-0.0656,0.0847,0.0597
Nc1nc2[nH]cc(CCc3ccc(C(=O)N[C@@H](CCC(=O)O)C(=O)O)cc3)c2c(=O)[nH]1 [Pemetrexed Disodium Hydrate],0.935,-0.121,-0.503,-0.322
Cc1cccc(N(C)C(=S)Oc2ccc3ccccc3c2)c1 [Tolnaftate],-0.326,0.387,0.888,0.465
O=C(O)Cc1cccc(OCCCN(Cc2cccc(C(F)(F)F)c2Cl)CC(c2ccccc2)c2ccccc2)c1,0.23,0.0376,0.502,0.00457
C[C@H](N[C@@H](CCc1ccccc1)C(=O)O)C(=O)N1CCC[C@H]1C(=O)O [Enalaprilat Dihydrate],1.08,0.0034,0.131,-0.602
N#CC(c1ccc(Cl)cc1)c1c(Cl)cc(-n2ncc(=O)[nH]c2=O)cc1Cl (stereo unspecified) [Diclazuril],-0.428,0.193,1.44,0.181
CCc1nc(N)nc(N)c1-c1ccc(Cl)cc1 [Pyrimethamine],-0.943,0.0759,-0.42,-0.694
CC(C)(C)C[C@@H]1N[C@@H](C(=O)N[C@H]2CC[C@H](O)CC2)[C@H](c2cccc(Cl)c2F)[C@]12C(=O)Nc1cc(Cl)ccc12,-1.12,1.8,0.118,1.39
Cn1c(=O)cc(N2CCC[C@@H](N)C2)n(Cc2ccccc2C#N)c1=O [Alogliptin],-0.774,1.02,2.38,0.797
O=C1NC(=O)/C(=C/c2ccc(-c3ccc(F)cc3O)o2)S1,1.53,0.254,0.483,0.0304
CC1(C)[C@@H](O[C@H]2O[C@H](C(=O)O)[C@@H](O)[C@H](O)[C@H]2O[C@@H]2O[C@H](C(=O)O)[C@@H](O)[C@H](O)[C@H]2O)CC[C@]2(C)[C@H]3C(=O)C=C4[C@@H]5C[C@@](C)(C(=O)O)CC[C@]5(C)CC[C@@]4(C)[C@]3(C)CC[C@@H]12 [Glycyrrhizin (Glycyrrhizic Acid)],0.062,0.568,1.23,-0.257
O=C(COc1ccc(C(=O)c2ccccc2)cc1)NC1CCN(Cc2ccccc2)CC1 [AdipoRon],1.15,-0.159,0.555,0.96
CO/N=C(\C(=O)N[C@@H]1C(=O)N2C(C(=O)O)=C(COC(N)=O)CS[C@H]12)c1ccco1 [Cefuroxime sodium],0.549,0.934,0.801,1.35
CCCSc1ccc2[nH]c(NC(=O)OC)nc2c1 [Albendazole],-0.0996,-0.516,0.427,-0.372
CC(C)(C)Cn1c(N)nc2ccc(-c3[nH]c(C(C)(C)C)nc3-c3ccc(F)cc3)nc21,0.264,0.447,-0.313,0.536
CC(=O)/N=c1/sc(S(N)(=O)=O)nn1C [Methazolamide],-0.682,0.941,1.06,-0.145
Cc1cc(C(O)=C2C(=O)C(=O)N(CCCN3CCOCC3)C2c2ccncc2)ccc1OCc1ccccc1 (stereo unspecified),0.103,0.0888,-0.562,0.114
CCCN[C@H]1CCc2nc(N)sc2C1 [Pramipexole],1.09,-0.444,-0.908,-0.444

# Entries listed so far that contain a cyano group (3):
SMILES,nucleus area z-score [1],total neurite length per nucleus (z-score) [2],nucleus roundness z-score [3],KCl-induced FOS+/EGR-1+ double-positive nuclei fraction z-score [4]
CS(=O)(=O)c1ccc(-c2nnc(/C=C/c3nnc(-c4ccc(C#N)cc4)o3)n2-c2ccccc2Cl)nc1,0.867,-0.622,0.492,-0.199
N#CC(c1ccc(Cl)cc1)c1c(Cl)cc(-n2ncc(=O)[nH]c2=O)cc1Cl (stereo unspecified) [Diclazuril],-0.428,0.193,1.44,0.181
Cn1c(=O)cc(N2CCC[C@@H](N)C2)n(Cc2ccccc2C#N)c1=O [Alogliptin],-0.774,1.02,2.38,0.797
